The text below walks through data of paper PMC12627232 (MedComm, 2025).

The subject of the data set is MDA-MB-231 cells. The experiment in a line: Immunofluorescence of ac-H3. It is filed as cell-based, human. Particulars: 1 μM SDFZ-8 treated MDA-MB-231 cells, 24 h. The method, then: Cells (10^5 cells per plate) were seeded in confocal dishes and incubated with drugs or DMSO (equal volume to experimental groups) for 24 h. The medium was removed, and cells were fixed with 4% polyoxymethylene solution for 30 min. The cells were treated with 0.2% Triton X‐100 for 10 min and 1% BSA for 1 h at room temperature. After that, cells were washed twice with TBST and incubated with anti‐H3 antibody (Cell Signal Technology; #13998) at 4°C overnight. When incubation finished, cells were washed five times with TBST and Cy3‐labeled goat anti‐rabbit IgG (Beyotime; #A0516) and DAPI solution (Solarbio) were added. After 1 h incubation and washing five times with TBST, cells were captured with Leica TCS SP8 super‐resolution laser scanning confocal microscope. The colocalization of ac‐H3 and DAPI was analyzed with ImageJ.

Take `O=C(CCCCCCNC(=O)c1cc(OCCc2ccccc2)c2ccccc2n1)NO` [SDFZ-8]: the “overlap R value of ac-H3 immunofluorescence and DAPI” value is listed as 0.88.
